Test results reported in PMC3641136.
No constants are given. Whether binding was seen depends on the method and setting. In cells and extracts the contact can be indirect. Some results given as binding are weak or reduced against the parent protein; the word gives no strength.

Molecular target: T1, GlyT2, endogenous in rat brain stem primary neurons (rat (endogenous in brain stem primary neurons)) (UniProt P58295)
T1 sequence: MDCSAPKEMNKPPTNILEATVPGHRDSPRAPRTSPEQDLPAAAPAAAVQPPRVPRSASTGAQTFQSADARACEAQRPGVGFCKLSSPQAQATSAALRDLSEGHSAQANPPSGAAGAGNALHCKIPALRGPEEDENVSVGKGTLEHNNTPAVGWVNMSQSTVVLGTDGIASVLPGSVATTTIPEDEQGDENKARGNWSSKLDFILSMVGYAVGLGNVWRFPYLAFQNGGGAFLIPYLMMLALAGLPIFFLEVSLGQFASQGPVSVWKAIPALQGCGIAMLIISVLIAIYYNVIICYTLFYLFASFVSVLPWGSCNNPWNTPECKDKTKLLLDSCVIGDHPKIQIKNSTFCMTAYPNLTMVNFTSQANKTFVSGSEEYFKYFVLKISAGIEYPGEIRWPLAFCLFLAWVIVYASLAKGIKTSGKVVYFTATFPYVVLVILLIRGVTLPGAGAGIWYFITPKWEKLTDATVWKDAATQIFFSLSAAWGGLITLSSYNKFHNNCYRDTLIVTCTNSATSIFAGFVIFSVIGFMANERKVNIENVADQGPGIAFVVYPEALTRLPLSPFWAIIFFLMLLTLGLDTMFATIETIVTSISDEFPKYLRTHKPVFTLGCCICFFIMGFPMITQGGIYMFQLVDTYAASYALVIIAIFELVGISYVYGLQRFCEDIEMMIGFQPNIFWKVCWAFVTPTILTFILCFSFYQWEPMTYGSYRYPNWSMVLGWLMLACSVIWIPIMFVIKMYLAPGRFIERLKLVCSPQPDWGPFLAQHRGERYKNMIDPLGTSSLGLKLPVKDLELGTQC
Assay: co-IP; rat brain stem primary neurons immunoprecipitated with anti-GlyT2 antibody made in rat; Western blot for GlyT2 or CNX with rabbit antibodies

B1: calnexin (CNX), endogenous in rat brain stem primary neurons (protein, UniProt P35565 21-591)
chain: HDGHDDDMIDIEDDLDDVIEEVEDSKSKSDTSTPPSPKVTYKAPVPTGEVYFADSFDRGSLSGWILSKAKKDDTDDEIAKYDGKWEVDEMKETKLPGDKGLVLMSRAKHHAISAKLNKPFLFDTKPLIVQYEVNFQNGIECGGAYVKLLSKTSELNLDQFHDKTPYTIMFGPDKCGEDYKLHFIFRHKNPKTGVYEEKHAKRPDADLKTYFTDKKTHLYTLILNPDNSFEILVDQSVVNSGNLLNDMTPPVNPSREIEDPEDRKPEDWDERPKIADPDAVKPDDWDEDAPSKIPDEEATKPEGWLDDEPEYIPDPDAEKPEDWDEDMDGEWEAPQIANPKCESAPGCGVWQRPMIDNPNYKGKWKPPMIDNPNYQGIWKPRKIPNPDFFEDLEPFRMTPFSAIGLELWSMTSDIFFDNFIISGDRRVVDDWANDGWGLKKAADGAAEPGVVGQMLEAAEERPWLWVVYILTVALPVFLVILFCCSGKKQSNAMEYKKTDAPQPDVKDEEGKEEEKNKGDEEEEEEKLEEKQKSDAEEDGGTGSQDEEDSKPKAEEDEILNRSPRNRKPRRE
For B1, the binding was “binds”.
